Results on one compound are retold here after US9440969B2, “Compounds and methods for kinase modulation, and indications therefor” (PLEXXIKON INC., priority 2009, dated 2016).

By UniProt entry, the sequences of proteins in these tests, tags left out.
UniProt P15056, whole entry V600E: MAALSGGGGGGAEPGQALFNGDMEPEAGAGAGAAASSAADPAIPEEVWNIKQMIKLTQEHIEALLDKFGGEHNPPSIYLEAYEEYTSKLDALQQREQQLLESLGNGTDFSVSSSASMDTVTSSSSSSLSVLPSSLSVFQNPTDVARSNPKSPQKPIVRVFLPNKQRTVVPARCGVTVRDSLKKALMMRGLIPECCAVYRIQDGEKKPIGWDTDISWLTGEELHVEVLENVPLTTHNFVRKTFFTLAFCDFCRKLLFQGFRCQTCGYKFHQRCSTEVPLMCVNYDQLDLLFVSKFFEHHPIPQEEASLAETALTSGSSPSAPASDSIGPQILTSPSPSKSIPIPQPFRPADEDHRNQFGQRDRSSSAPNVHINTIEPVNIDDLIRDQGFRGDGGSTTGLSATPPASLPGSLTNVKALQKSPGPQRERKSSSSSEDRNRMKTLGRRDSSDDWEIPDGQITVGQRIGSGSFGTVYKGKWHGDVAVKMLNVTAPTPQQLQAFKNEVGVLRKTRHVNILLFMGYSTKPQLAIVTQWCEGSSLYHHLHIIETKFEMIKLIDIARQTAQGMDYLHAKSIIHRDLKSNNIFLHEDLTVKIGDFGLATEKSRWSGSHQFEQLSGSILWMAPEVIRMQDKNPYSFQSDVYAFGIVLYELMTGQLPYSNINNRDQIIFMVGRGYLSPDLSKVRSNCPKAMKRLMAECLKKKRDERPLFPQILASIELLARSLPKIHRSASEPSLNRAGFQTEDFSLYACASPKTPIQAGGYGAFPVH
UniProt P15056, whole entry: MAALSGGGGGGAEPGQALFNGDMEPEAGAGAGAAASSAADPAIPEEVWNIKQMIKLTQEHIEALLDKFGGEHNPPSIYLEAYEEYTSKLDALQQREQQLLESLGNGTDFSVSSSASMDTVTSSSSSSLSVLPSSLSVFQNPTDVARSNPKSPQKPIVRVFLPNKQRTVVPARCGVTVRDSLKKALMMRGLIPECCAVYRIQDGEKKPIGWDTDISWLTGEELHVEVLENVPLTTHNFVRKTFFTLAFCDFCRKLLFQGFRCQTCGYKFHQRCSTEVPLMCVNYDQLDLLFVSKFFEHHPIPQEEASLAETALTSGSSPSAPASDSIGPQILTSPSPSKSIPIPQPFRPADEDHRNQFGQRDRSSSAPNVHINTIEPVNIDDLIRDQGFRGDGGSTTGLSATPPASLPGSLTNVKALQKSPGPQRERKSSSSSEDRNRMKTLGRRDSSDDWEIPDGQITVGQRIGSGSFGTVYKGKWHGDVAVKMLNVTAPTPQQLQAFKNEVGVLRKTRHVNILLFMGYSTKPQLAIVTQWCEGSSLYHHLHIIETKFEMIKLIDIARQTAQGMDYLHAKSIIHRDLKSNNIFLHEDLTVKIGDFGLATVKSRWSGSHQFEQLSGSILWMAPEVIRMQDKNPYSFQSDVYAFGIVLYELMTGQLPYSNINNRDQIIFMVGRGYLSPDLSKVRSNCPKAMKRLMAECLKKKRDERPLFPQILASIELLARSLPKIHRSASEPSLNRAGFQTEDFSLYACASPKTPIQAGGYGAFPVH
UniProt P04049, whole entry Y340D/Y341D: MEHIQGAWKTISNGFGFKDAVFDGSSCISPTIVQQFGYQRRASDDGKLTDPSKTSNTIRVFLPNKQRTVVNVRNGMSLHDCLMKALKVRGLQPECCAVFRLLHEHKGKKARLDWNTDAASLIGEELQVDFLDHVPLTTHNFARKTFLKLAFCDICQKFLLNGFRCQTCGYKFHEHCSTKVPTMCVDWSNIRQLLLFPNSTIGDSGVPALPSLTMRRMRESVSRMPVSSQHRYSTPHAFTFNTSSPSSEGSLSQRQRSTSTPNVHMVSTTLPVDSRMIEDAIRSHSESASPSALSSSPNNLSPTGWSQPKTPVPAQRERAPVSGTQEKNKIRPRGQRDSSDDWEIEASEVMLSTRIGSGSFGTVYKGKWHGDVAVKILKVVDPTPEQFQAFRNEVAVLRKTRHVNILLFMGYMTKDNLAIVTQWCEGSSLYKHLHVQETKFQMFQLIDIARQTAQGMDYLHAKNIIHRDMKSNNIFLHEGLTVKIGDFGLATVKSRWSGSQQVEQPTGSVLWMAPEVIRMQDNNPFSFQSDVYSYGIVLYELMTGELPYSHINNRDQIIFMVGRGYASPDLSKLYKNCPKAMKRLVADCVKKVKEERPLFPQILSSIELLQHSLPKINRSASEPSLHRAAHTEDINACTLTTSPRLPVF

One test concerns the target B-Raf V600E (Homo sapiens, UniProt P15056, V600E). Nature of the test: B-Raf V600E kinase activity assay (AlphaScreen, biotin-MEK1 substrate). The settings on record: 100 μM ATP, 100 nM biotin-MEK1, 45 minutes at room temperature, read-out: Biochemical activity (IC50 μM) V600E. How it is done: (§1) Assays for biochemical and cell based activity are known in the art, for example, as described in PCT publication WO 2007/002433, the disclosure of which is hereby incorporated by reference as it relates to such assays. For example, the biochemical activity IC50 values are determined with respect to inhibition of B-Raf kinase activity, c-Raf-1 kinase activity, or B-Raf V600E kinase activity, where inhibition of phosphorylation of a peptide substrate is measured as a function of compound concentration. Compounds to be tested are diluted in dimethyl sulfoxide to a concentration of 0.1 mM. These are serially diluted 15 μL into 30 μL of dimethyl sulfoxide seven times in 96 well plates for a total of 8 dilution points, and for each dilution point 1 μL is added to a well of an assay plate. Plates are prepared such that each well in a 384 well plate contains 1 μL of compound in 10 μL, volume with 0.1 ng Raf enzyme (i.e. any of B-Raf, c-Raf-1 or B-Raf V600E, Upstate Biotechnology or prepared by methods known to one of skill in the art), 50 mM HEPES, pH 7.0, 50 mM NaCl, 2 mM MgCl2, 1 mM MnCl2, 0.01% Tween-20, 1 mM DTT, and 100 nM biotin-MEK1 as substrate. The reaction is started with addition of 10 μL of 200 μM ATP (i.e. final 100 μM ATP). […] The plates are incubated for 3 hours at room temperature and read on Envision reader (Perkin Elmer). […]
In general terms: Bead proximity is the source of the signal in Alpha formats.

The target in the next test is B-Raf (Homo sapiens, UniProt P15056). Briefly: B-Raf kinase activity assay (AlphaScreen, biotin-MEK1 substrate). The settings on record: 100 μM ATP, 100 nM biotin-MEK1, 45 minutes at room temperature; read-out: Biochemical activity (IC50 μM) B-Raf. How it is done: as §1
Test [1] has as its system COLO205 colon adenocarcinoma (B-Raf V600E mutation). Nature of the test: COLO205 cell growth inhibition (ATPlite luminescence). The class given is cell-based. The conditions noted are these: Homo sapiens, COLO 205, 72 h, COLO205 cells, incubated 3 days with compound. How it is done: Compounds are assessed in a variety of cell based assays. For example human cell lines with B-Raf V600E mutation (A375 melanoma, SKMEL3 melanoma, and COLO205 colon adenocarcinoma), as well as tumorigenic cell lines with wild-type B-RAF (SW620 colon adenocarcinoma) or with Ras mutations (SKMEL2 melanoma and IPC298 melanoma). Similar assays may be used to assess additional tumorigenic cell lines with Ras mutations, including, but not limited to, M202, M207, M243, M244, M296, S117, HCT116, HCT15, DLD1, MiaPaCa, A549, NCI-H23, NCI-H460, HOP62, MDA-MB231, Hs-578T, HL60, MOLT-4, and CCRF-CEM.
On day 1, cells are counted, then centrifuged in a conical tube for 5 minutes at 1000 rpm. […]
On day 5, ATPlite 1 step Luminescence Assay System (Perkin Elmer #6016739) is brought to room temperature along with the cell cultures. ATPlite is added 25 μL to each well, shake for 2 minutes, and the cells are incubated at room temperature for 10 minutes, then luminescence is read on Safire reader. The measured luminescence correlates directly with cell number, such that the reading as a function of compound concentration is used to determine the IC50 value.
It is understood that the results of these assays may vary as assay conditions are varied. Inhibition levels determined under the conditions described herein represent a relative activity for the compounds tested under the specific conditions employed. […]
(Cellular ATP, detected with luciferase, serves as a proxy for viable cell number.)

The target in the next test is c-Raf-1 (Homo sapiens, UniProt P04049). Briefly: c-Raf-1 kinase activity assay (AlphaScreen, biotin-MEK1 substrate). The settings on record: 100 μM ATP, 100 nM biotin-MEK1, 45 minutes at room temperature; read-out: Biochemical activity (IC50 μM) c-Raf-1. How it is done:
as §1

SMILES strings stand for the structures.

As to `CCCS(=O)(=O)Nc1ccc(F)c(C(=O)c2c[nH]c3ncc(-c4cnc5[nH]ncc5c4)cc23)c1F` [P-0008, Propane-1-sulfonic acid {2,4-difluoro-3-[5-(1H-pyrazolo[3,4-b]pyridin-5-yl)-1H-pyrrolo[2,3-b]pyridine-3-carbonyl]-phenyl}-amide], the IC50 (as a rule, the midpoint of a concentration-inhibition curve) at B-Raf V600E is less than 0.1 µM; on B-Raf, less than 0.1 µM; in test [1], less than 1 µM; at c-Raf-1 it was less than 0.1 µM.
